The values below come from article PMC6386991 (International Journal of Molecular Sciences, 2019).

Protein sequences, listed by entry. Tags and fused reporters are not part of them. Residues count along the entry.
UniProt P22303, residues 52-577: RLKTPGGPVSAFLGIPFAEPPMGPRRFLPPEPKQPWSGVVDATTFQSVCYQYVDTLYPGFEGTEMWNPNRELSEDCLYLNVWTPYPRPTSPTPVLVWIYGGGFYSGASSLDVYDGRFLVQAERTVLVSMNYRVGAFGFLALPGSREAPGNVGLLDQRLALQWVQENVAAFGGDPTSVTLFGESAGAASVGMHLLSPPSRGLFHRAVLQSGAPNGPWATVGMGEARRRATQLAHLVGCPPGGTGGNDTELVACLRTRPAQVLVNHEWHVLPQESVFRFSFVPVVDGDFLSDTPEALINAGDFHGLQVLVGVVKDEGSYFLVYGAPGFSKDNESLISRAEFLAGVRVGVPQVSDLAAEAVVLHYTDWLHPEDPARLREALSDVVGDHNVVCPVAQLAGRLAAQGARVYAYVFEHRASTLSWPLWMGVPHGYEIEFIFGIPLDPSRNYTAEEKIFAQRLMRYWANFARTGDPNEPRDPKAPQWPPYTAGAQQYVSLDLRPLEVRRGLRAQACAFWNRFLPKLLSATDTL
UniProt P27338, residues 1-489: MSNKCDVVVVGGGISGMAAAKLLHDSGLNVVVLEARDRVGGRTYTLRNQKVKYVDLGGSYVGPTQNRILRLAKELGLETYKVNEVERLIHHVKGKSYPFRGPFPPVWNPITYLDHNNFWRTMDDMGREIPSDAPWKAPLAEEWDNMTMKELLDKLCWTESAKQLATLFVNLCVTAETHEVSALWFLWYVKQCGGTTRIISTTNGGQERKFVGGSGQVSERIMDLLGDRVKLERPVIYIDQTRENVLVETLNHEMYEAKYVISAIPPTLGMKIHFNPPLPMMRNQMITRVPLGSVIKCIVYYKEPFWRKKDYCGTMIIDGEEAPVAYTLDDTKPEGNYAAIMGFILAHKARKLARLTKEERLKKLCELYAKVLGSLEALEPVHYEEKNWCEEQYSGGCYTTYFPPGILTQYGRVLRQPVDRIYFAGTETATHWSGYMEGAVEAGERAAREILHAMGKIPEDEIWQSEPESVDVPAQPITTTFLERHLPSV

The target in experiment [1] is human acetylcholinesterase (hAChE), aa 52-577, bait from pGBKT7-hAChE (human) (UniProt P22303). Nature of the experiment: two-hybrid; Matchmaker Gold Y2H, small scale mating (5 mL) of Y2HGold [bait AChE in pGBKT7] with Y187 [preys in pGADT7]; no hybrid ligand; DDO/X/A agar plates (Aureobasidin A 200 ng/mL, X-alpha-Gal 40 ug/mL), blue colonies as read-out.
The target is the same in experiment [2]. The experiment in a line: two-hybrid; yeast three-hybrid (Y3H): small scale mating (10 mL) of the same bait and preys with hybrid ligand at 10 uM in the mating mixture and in the DDO/X/A plates; blue colony moved to QDO/X/A with 10 uM hybrid ligand, then to QDO/X/A without the ligand.

No constants are given. Whether binding was seen depends on the method and setting.

Turning to “human microtubule associated protein tau (MAPT), entire protein aa 1-758, prey from pGADT7-hMAPT (from UniProt P10636-1 1-758)”, the binding entry in experiment [1] and in experiment [2] was “no binding” each time.

On to “human monoamine oxidase B (MAO B), cytoplasmic domain aa 1-489, prey from pGADT7-hMAO B (from UniProt P27338 1-489) (domain or fragment)”, for which the binding entry in experiment [1] and in experiment [2] was “no binding” in each case.
